{"source": "PubChem BioAssay AID485314", "about": "(National Center for Advancing Translational Sciences (NCATS), 2010)", "note": "About 4,500 (1.3%) of roughly 340,000 compounds were called active. Inconclusive results, whose numbers are uncertain, are shown with a selection of clear calls. Calls follow the shape of the dose curve; as a rule, active = well fitted inhibition curve with a large enough effect; inconclusive = small, poorly fitted or top-dose-only effect, or another doubt; inactive = no such curve, though single readings can be large or run the other way. Potencies beside an inconclusive call are fits to weak or partial responses and may not hold up. % is scaled to controls: 0 for no effect and ±100 for the full control effect; potency is read from the fitted curve at half-maximal effect."}
{"biological_target": "DNA polymerase beta (Homo sapiens) (UniProt P06746)", "assay": "qHTS Assay for Inhibitors of DNA Polymerase Beta", "conditions": "Pol beta primer extension/strand displacement, fluorescence kinetic; activity change, negative = inhibition: at 114 µM (top of the series)", "in_short": "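10 nM enzyme + cpd, 15 min RT; start with substrate 50 nM final; read 0 min and after 10 min RT. Corrected, normalized data; 4-parameter Hill curve fit.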"}
{"smiles": "Cc1ccccc1C(=O)Nc1nnc2n1CCS2", "activity change, negative = inhibition": "inactive: 8.77%"}
{"smiles": "COc1ccc(Nc2c3ccccc3nc3ccccc23)cc1", "Potency": "inconclusive: 15.8 µM [inhibitor, partial curve]"}
{"smiles": "CCOC(=O)c1cccc(NC(=O)/C=C/c2ccc3c(c2)OCO3)c1", "Potency": "inconclusive: 0.355 µM [inhibitor, full curve, poor fit]"}
{"smiles": "COc1ccc(Nc2nc(C(=O)N(CCO)Cc3ccccc3)cs2)cc1", "Potency": "inconclusive: 89.1 µM [inhibitor, single point]"}
{"smiles": "Cc1c(CN2CCCC(C)C2)c(O)n(CCO)c(=O)c1C#N", "note": "(stereo not given)", "Potency": "inconclusive: 63.1 µM [inhibitor, single point]"}
{"smiles": "Cc1noc(C)c1C(=O)Nc1nc2ccc(S(C)(=O)=O)cc2s1", "Potency": "inconclusive: 25.1 µM [inhibitor, single point]"}
{"smiles": "Cc1c(C(=O)N(C)C)sc2c1c(=O)n(-c1ccc(Cl)cc1)c(=O)n2Cc1ccccc1F", "Potency": "inconclusive: 0.501 µM [inhibitor, full curve, poor fit]"}
{"smiles": "Cc1ccc(OCCNC(=O)c2cccc(Oc3ccc(C(F)(F)F)cc3[N+](=O)[O-])c2)cc1", "Potency": "inconclusive: 44.7 µM [inhibitor, partial curve]"}
{"smiles": "Cc1ccc(C(=O)c2cn(CC(=O)NCc3ccccc3Cl)c3nc(C)ccc3c2=O)cc1", "Potency": "inconclusive: 10 µM [inhibitor, full curve, poor fit]"}
{"smiles": "Cc1nc2ccccn2c1C(=O)N/N=C/c1ccc([N+](=O)[O-])o1", "Potency": "active: 31.6 µM"}
{"smiles": "CCOc1cc(/C=C2\\SC(=S)N(NC(=O)c3cccnc3)C2=O)ccc1O", "Potency": "inconclusive: 22.4 µM [inhibitor, partial curve]"}
{"smiles": "Cc1ccc(-c2ccc(=O)n(CC(=O)Nc3ccc4c(c3)OCCO4)n2)cc1", "Potency": "inconclusive: 1.26 µM [inhibitor, full curve]"}
{"smiles": "CCCCN1CC(O)=C(c2nc3ccccc3[nH]2)C1=N", "activity change, negative = inhibition": "inactive: 15.8%"}
{"smiles": "COc1cc(NC(=O)N2CCC(CN3CCOCC3)CC2)cc(OC)c1OC", "activity change, negative = inhibition": "inactive: -1.66%"}
{"smiles": "O=C(COC(=O)c1ccc(Br)o1)Nc1ncc(Cl)cc1Cl", "Potency": "inconclusive: 22.4 µM [inhibitor, partial curve]"}
{"smiles": "COC(=O)CCCC1=CC2=CC(=O)C(C)(OC(=O)C3CCCC3)C(=O)C2=CO1", "note": "(stereo not given)", "Potency": "active: 44.7 µM"}
{"smiles": "Cc1nc2nc(SCC(=O)NC3CCCCC3)nn2c(C)c1Cc1ccccc1Cl", "activity change, negative = inhibition": "inactive: 26.4%"}
{"smiles": "CCOc1cc(/C=C(\\C#N)C(=O)Nc2cccc(C(=O)O)c2)ccc1OCc1ccc(Br)cc1", "Potency": "active: 10 µM"}
{"smiles": "CCn1cc(C(=O)O)c(=O)c2cc(F)c(N/N=C/c3ccccc3)cc21", "Potency": "inconclusive: 15.8 µM [inhibitor, full curve, poor fit]"}
{"smiles": "COc1ccc(C(=O)CSc2nnc(NC(=O)C3CC(=O)N(c4ccccc4C)C3)s2)cc1", "note": "(stereo not given)", "Potency": "inconclusive: 17.8 µM [inhibitor, full curve]"}
{"smiles": "O=C(CNCC1CCCCC1)Nc1ccc(OC(F)(F)F)cc1", "Potency": "inconclusive: 25.1 µM [inhibitor, partial curve]"}
{"smiles": "COc1ccc(N2CCN(C(=O)c3ccc4[nH]c(C)c(C)c4c3)CC2)cc1", "Potency": "inconclusive: 89.1 µM [inhibitor, single point]"}
{"smiles": "CCOc1ccc(-c2nnc(SCc3nc4ccccc4[nH]3)n2N)cc1", "Potency": "active: 50.1 µM"}
{"smiles": "COCc1c(C(=O)N2CCN(Cc3ccc(C#N)cc3)CC2)oc2ccccc12", "activity change, negative = inhibition": "inconclusive: -54.1% [inhibitor]"}
{"smiles": "Cc1ccc(/C=N\\NC(=O)C2CC(=O)N(c3ccccc3)C2)o1", "note": "(stereo not given)", "activity change, negative = inhibition": "inactive: -21.7%"}
{"smiles": "O=C(NCCCc1nc2ccccc2n1Cc1ccc(Cl)cc1)C1CCCCC1", "activity change, negative = inhibition": "inactive: 6.86%"}
{"smiles": "Nc1ccc(C(=O)N/N=C\\C=C\\c2ccc([N+](=O)[O-])cc2)cc1", "Potency": "inconclusive: 22.4 µM [inhibitor, full curve, poor fit]"}
{"smiles": "CCC(=O)Nc1ccc(C(=O)CSc2nnc(-c3cccnc3)o2)cc1", "Potency": "inconclusive: 39.8 µM [inhibitor, single point]"}
{"smiles": "COc1ccccc1NC(=O)Nc1ccnn1C1CCN(C(=O)c2cscn2)CC1", "activity change, negative = inhibition": "inactive: 27.7%"}
{"smiles": "CCOC(=O)c1c(N)sc2c1CCC1C(=O)N(C3CCCCC3)C(=O)C21", "note": "(stereo not given)", "Potency": "inconclusive: 31.6 µM [inhibitor, full curve]"}
{"smiles": "COc1ccc(OC)c(S(=O)(=O)NCc2ccc(N3CCN(C)CC3)cc2)c1", "Potency": "inconclusive: 0.501 µM [inhibitor, full curve, poor fit]"}
{"smiles": "COc1cccc(CNC(=O)Cn2ncn3nc(-c4cccs4)cc3c2=O)c1OC", "activity change, negative = inhibition": "inactive: 1.37%"}
{"smiles": "O=C(O)c1c(C(=O)O)c(-c2ccc(Cl)c(Cl)c2)n2c1CSC2", "Potency": "inconclusive: 50.1 µM [inhibitor, partial curve]"}
{"smiles": "O=C(Nc1nc2ccccc2[nH]1)Nc1ccccc1F", "Potency": "inconclusive: 89.1 µM [inhibitor, single point]"}
{"smiles": "CC1CCN(C(=O)c2ccc([N+](=O)[O-])o2)CC1", "activity change, negative = inhibition": "inactive: 19.2%"}
{"smiles": "CCOC(=O)c1cc2[nH]c3ccccc3c2[n+](-c2ccc([N+](=O)[O-])cc2)c1N", "Potency": "inconclusive: 31.6 µM [inhibitor, partial curve, poor fit]"}
{"smiles": "CC(=O)Nc1ccc(-n2cc(-c3ccccc3)[nH]c2=S)cc1", "activity change, negative = inhibition": "inactive: -8.99%"}
{"smiles": "Cc1c(Cl)cnc(NC(=O)COC(=O)c2ccc([N+](=O)[O-])s2)c1Cl", "Potency": "active: 28.2 µM"}
{"smiles": "c1ccc(C2=NNC(=NC3CC3)SC2)cc1", "activity change, negative = inhibition": "inactive: 11.4%"}
{"smiles": "O=C1C=C(Nc2ccc(Cl)cc2)CC(c2ccco2)C1", "note": "(stereo not given)", "Potency": "inconclusive: 25.1 µM [inhibitor, full curve]"}
{"smiles": "CCOc1ccc(N2CCn3c2nc2c3c(=O)n(CCc3ccccc3)c(=O)n2C)cc1", "Potency": "inconclusive: 89.1 µM [inhibitor, single point]"}
{"smiles": "CC(=O)OC1C(OC(C)=O)N(C(C)=O)C(=O)N1C(C)=O", "note": "(stereo not given)", "Potency": "inconclusive: 20 µM [inhibitor, partial curve]"}
{"smiles": "COc1ccc2[nH]c3c(C)c4ccncc4c(C)c3c2c1", "Potency": "active: 1.26 µM"}
{"smiles": "O=[N+]([O-])c1cccnc1N1CCC(c2cc(-c3ccc(Cl)cc3)n[nH]2)CC1", "Potency": "inconclusive: 22.4 µM [inhibitor, partial curve, poor fit]"}
{"smiles": "N#Cc1c(/N=C/c2ccc(-c3ccccc3C(=O)O)o2)sc2c1CCCC2", "Potency": "active: 28.2 µM"}
